From article PMC8774046
Where two headings read alike, the source gives them in different places. No constants are given. Whether binding was seen depends on the method and setting. In cells and extracts the contact can be indirect. Some entries that bind do so weakly or less than the wild type.

Chains of the proteins cited; added tags and fusions are not shown.
UniProt Q9SXA1: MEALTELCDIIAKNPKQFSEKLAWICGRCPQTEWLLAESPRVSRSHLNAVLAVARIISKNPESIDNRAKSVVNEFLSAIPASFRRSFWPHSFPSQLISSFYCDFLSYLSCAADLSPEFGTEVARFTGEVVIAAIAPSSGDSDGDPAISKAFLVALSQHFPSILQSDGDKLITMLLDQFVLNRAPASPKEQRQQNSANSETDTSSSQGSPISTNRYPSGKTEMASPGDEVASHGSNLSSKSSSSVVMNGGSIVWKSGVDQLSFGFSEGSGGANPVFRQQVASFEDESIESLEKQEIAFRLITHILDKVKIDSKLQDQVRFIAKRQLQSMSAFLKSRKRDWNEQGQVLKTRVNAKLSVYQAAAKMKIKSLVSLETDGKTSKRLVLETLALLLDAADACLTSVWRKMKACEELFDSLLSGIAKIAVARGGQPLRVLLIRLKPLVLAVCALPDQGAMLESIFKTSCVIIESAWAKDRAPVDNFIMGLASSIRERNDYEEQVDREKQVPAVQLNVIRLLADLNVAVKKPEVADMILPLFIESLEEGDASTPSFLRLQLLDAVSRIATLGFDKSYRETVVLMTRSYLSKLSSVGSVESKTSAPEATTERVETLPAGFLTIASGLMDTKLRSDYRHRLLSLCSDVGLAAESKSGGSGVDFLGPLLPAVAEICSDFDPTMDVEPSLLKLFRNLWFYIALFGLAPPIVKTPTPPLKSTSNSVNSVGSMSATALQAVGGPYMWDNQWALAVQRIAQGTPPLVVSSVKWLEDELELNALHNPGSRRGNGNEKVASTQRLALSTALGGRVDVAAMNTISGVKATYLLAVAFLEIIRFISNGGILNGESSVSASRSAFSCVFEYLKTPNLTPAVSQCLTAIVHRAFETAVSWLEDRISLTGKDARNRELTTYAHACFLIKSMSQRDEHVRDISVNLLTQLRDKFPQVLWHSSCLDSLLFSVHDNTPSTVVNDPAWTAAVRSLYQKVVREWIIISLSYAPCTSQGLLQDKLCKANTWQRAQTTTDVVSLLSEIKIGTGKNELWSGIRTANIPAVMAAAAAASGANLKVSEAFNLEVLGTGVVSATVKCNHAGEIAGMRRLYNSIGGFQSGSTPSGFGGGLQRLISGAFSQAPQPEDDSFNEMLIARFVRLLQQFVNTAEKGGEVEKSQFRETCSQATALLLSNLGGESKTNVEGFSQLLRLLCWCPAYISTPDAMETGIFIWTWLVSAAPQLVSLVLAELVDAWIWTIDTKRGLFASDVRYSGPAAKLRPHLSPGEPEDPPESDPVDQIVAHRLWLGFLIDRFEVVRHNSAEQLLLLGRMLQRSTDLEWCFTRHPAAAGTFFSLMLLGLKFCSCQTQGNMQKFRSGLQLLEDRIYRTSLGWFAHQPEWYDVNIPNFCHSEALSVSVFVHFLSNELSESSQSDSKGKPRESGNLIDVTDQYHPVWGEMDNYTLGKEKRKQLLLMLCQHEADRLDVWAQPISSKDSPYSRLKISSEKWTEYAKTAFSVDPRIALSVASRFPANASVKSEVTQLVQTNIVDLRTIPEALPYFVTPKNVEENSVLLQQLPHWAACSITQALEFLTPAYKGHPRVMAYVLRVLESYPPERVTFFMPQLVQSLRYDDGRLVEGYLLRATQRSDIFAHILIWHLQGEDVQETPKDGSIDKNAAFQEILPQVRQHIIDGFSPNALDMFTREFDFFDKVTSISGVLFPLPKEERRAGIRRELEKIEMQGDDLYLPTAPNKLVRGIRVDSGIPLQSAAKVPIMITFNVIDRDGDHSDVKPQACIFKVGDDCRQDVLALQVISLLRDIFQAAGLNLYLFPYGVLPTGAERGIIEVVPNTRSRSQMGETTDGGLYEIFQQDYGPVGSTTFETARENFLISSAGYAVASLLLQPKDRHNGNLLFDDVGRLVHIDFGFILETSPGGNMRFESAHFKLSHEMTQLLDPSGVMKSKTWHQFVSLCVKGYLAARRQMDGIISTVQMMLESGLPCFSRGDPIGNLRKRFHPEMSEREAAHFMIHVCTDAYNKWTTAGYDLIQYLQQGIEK

T1: Lti6b–mCITRINE (UniProt Q9ZNS6)
T1 sequence: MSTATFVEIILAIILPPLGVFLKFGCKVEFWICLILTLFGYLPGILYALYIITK

T2: NPGR2–mCITRINE (Arabidopsis thaliana) (UniProt Q66GN3)
T2 sequence: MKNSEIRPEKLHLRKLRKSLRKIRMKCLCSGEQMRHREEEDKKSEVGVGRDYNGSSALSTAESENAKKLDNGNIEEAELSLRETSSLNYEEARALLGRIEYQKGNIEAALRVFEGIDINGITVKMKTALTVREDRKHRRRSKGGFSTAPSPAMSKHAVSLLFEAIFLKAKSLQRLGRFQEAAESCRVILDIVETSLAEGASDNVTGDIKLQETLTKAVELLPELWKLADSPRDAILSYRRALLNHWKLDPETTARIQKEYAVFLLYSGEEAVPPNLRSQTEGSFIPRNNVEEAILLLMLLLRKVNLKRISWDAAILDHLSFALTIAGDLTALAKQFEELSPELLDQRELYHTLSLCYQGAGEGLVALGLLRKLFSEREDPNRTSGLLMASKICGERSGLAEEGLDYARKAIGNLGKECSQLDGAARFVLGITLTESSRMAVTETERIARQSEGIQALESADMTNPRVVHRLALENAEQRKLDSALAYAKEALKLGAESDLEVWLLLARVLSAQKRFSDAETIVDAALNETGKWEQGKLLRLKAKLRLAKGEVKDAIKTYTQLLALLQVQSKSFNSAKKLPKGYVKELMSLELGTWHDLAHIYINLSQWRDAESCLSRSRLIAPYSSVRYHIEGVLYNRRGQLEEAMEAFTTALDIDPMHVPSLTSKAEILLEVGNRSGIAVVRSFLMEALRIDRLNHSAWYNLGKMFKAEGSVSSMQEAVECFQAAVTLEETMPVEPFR


Assays:
Test in all cases: co-IP; leaf tissue of Arabidopsis transgenic lines; proteins fused to mCITRINE immunoprecipitated with Miltenyi µMacs anti-GFP; immunoblot with anti-PI4Kα1, anti-NPGR2 and anti-GFP
Lti6b–mCITRINE [1] = target: T1, Lti6b–mCITRINE
[2] = target: T2, NPGR2–mCITRINE (Arabidopsis thaliana)
Lti6b–mCITRINE [3] = target: T1, Lti6b–mCITRINE; remark: listed apart in the source

| binding (Lti6b–mCITRINE [1]) | binding [2] | binding (Lti6b–mCITRINE [3]) | Molecule |
| --- | --- | --- | --- |
| no binding | binds | – | PI4Kα1 (endogenous, native) (from UniProt Q9SXA1 1-2028) (enzyme) |
| – | – | no binding | NPGR2 (endogenous) (protein, UniProt Q66GN3 1-739) MKNSEIRPEKLHLRKLRKSLRKIRMKCLCSGEQMRHREEEDKKSEVGVGRDYNGSSALSTAESENAKKLDNGNIEEAELSLRETSSLNYEEARALLGRIEYQKGNIEAALRVFEGIDINGITVKMKTALTVREDRKHRRRSKGGFSTAPSPAMSKHAVSLLFEAIFLKAKSLQRLGRFQEAAESCRVILDIVETSLAEGASDNVTGDIKLQETLTKAVELLPELWKLADSPRDAILSYRRALLNHWKLDPETTARIQKEYAVFLLYSGEEAVPPNLRSQTEGSFIPRNNVEEAILLLMLLLRKVNLKRISWDAAILDHLSFALTIAGDLTALAKQFEELSPELLDQRELYHTLSLCYQGAGEGLVALGLLRKLFSEREDPNRTSGLLMASKICGERSGLAEEGLDYARKAIGNLGKECSQLDGAARFVLGITLTESSRMAVTETERIARQSEGIQALESADMTNPRVVHRLALENAEQRKLDSALAYAKEALKLGAESDLEVWLLLARVLSAQKRFSDAETIVDAALNETGKWEQGKLLRLKAKLRLAKGEVKDAIKTYTQLLALLQVQSKSFNSAKKLPKGYVKELMSLELGTWHDLAHIYINLSQWRDAESCLSRSRLIAPYSSVRYHIEGVLYNRRGQLEEAMEAFTTALDIDPMHVPSLTSKAEILLEVGNRSGIAVVRSFLMEALRIDRLNHSAWYNLGKMFKAEGSVSSMQEAVECFQAAVTLEETMPVEPFR |
